{"sequences": {"note": "Amino acid sequences for entries named in this document (tags omitted). Residues count along the entry.", "UniProt P08887, residues 20-468": "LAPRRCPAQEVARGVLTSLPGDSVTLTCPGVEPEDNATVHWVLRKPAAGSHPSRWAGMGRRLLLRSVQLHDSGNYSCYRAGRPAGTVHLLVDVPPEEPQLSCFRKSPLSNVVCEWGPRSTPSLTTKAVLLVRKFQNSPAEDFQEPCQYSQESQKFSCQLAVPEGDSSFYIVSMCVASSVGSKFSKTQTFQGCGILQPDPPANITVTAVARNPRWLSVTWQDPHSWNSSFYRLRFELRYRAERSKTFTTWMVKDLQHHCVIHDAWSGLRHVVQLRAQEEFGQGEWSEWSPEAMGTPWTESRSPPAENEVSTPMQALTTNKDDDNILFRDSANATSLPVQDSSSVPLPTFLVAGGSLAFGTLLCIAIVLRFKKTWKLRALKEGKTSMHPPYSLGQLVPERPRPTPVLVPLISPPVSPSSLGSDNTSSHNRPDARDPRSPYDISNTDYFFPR"}, "source": "paper PMC6620282", "binders": {"B1": {"name": "Trefoil factor 1 (TFF1) (protein, UniProt P04155 25-84)", "chain": "EAQTETCTVAPRERQNCGFPGVTPSQCANKGCCFDDTVRGVPWCFYPNTIDVPPEEECEF"}}, "target": "IL6Rα (IL-6 receptor alpha) (human (endogenous in AGS and STKM2)) (UniProt P08887)", "test": "proximity ligation; Duolink in situ PLA on fixed, permeabilised AGS cells expressing TFF1 (adenovirus), IL6 (100 ng/mL, 3 h); mouse anti-IL6Rα with rabbit anti-GP130 or rabbit anti-TFF1", "note": "These are yes or no findings as the source states them, for the method shown. Binding seen in cells or lysates may run through a third protein. Some results given as binding are weak or reduced against the parent protein; the word gives no strength."}
{"binder": "B1", "values": [{"measurement": "binding", "value": "binds"}]}
